Assay results as given in PubChem BioAssay AID504467 (National Center for Advancing Translational Sciences (NCATS), 2011).
Among all 330,000 compounds or so, about 7,700 (2.3%) were called active. This list was built around the results that the source calls inconclusive (neither active nor inactive); the mix of calls is not that of the screen. The call rests on the fitted dose curve; in most records, active means well fitted inhibition curve with a large enough effect; inconclusive means small, poorly fitted or top-dose-only effect, or effect the other way; inactive means flat fitted curve, though single readings scatter. A potency beside an inconclusive call is a rough fit, not a confirmed value.

Assay: qHTS screen for small molecules that inhibit ELG1-dependent DNA repair in human embryonic kidney (HEK293T) cells expressing luciferase-tagged ELG1; further: nearly all actives have a fitted effect of over 55% in size
Conditions: HEK293T ELG1-luciferase reporter, luminescence, 16 h, DNA damage induced by 5-fluorouridine; activity change, negative = inhibition: at 46.1 µM (top of the series)
Procedure, shortened: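 Quantitative HTS, concentration-response format. 2,000 cells/well co-treated with 5-fluorouridine and compound, 16 hr in 5% CO2 at 37 °C; ONE-Glo luminescence read after 30 min.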
On the % scale 0 is the no-effect control and ±100 the full control effect; potency means the concentration at half of the fitted maximal effect.

SMILES | Potency | activity change, negative = inhibition
O=C(c1ccco1)N1CCN(Cc2cccnc2)CC1 | inconclusive: 18.4 µM [activator, single point] | –
O=C(Nc1ccc(Cl)cc1)c1ccc(-c2ccccn2)s1 | inconclusive: 4.11 µM [activator, full curve] | –
COc1ccc2c(c1)C1=C(CC2)C(c2ccc(C)cc2)NC(=S)N1 (stereo unspecified) | inconclusive: 11.6 µM [inhibitor, partial curve] | –
CC(=O)Nc1cccc(C(=O)N/N=C/c2ccc(F)cc2)c1 | inconclusive: 8.2 µM [activator, partial curve] | –
O=C(OCC(=O)N1CCc2ccccc21)C1=COCCO1 | inconclusive: 20.6 µM [activator, partial curve] | –
COC(=O)c1ccc(C(=O)OC)c(-n2c(=O)c3ccccc3c3ccccc3c2=O)c1 | inconclusive: 29.1 µM [activator, single point] | –
CN(CC(=O)Nc1ccc(F)cc1)CC(=O)N1CCCCCC1 | – | inactive: -3.13%
Cc1cccc2cc(CN(Cc3ccc4c(c3)OCO4)Cc3nnnn3C3CCCC3)c(=O)[nH]c12 | inconclusive: 29.1 µM [inhibitor, single point] | –
O=c1oc2ccccc2c(Nc2cccc(O)c2)c1[N+](=O)[O-] | – | inactive: -2.46%
Cc1ccc(N2C(=O)SC(N(CC(=O)O)c3cccc(C)c3)C2=O)cc1 (stereo unspecified) | inconclusive: 23.1 µM [activator, single point] | –
C/C(=N\NC(=O)c1ccc(O)cc1)c1ccc2c(c1)OCCO2 | inconclusive: 20.6 µM [activator, partial curve] | –
COc1ccc(-n2c(=S)[nH]c3cc(C(=O)NCc4ccco4)ccc3c2=O)cc1OC | inactive | –
COc1ccccc1OCC(O)Cn1c(=N)n(Cc2ccccc2)c2ccccc21 (stereo unspecified) | inconclusive: 18.4 µM [inhibitor, single point] | –
COc1ccc(NC(=S)Nn2cnnc2)cc1OC | – | inactive: 6.82%
O=C1NC(=S)N/C1=C\c1ccc(N2CCOCC2)cc1 | inconclusive: 13 µM [activator, partial curve] | –
O=C(Cc1ccccc1[N+](=O)[O-])N1CCc2ccccc2C1 | inconclusive: 23.1 µM [activator, single point] | –
CC(=O)c1c(C(C)=O)c(C)n(NC(=O)c2ccncc2)c1C | – | inactive: 13%
Cc1ccc2nc(C3CCCN(C(=S)Nc4ccccc4C)C3)[nH]c2c1 (stereo unspecified) | – | inactive: 2.64%
COc1ccc(NC(=O)Nc2ccc(Cc3ccncc3)cc2)cc1OC | – | inactive: -11.6%
COc1ccc(-c2cc(C(=O)N3CC4(C)CC3CC(C)(C)C4)no2)cc1 (stereo unspecified) | – | inactive: 3.03%
C=CCC1(N(C(C)=O)c2ccccc2C)CCCCC1 | – | inactive: -3.37%

Quoted from the listing:
Under Potency, COc1ccc(-n2c(=S)[nH]c3cc(C(=O)NCc4ccco4)ccc3c2=O)cc1OC is entered as inactive
Under activity change, negative = inhibition, COc1ccc(NC(=S)Nn2cnnc2)cc1OC is entered as inactive: 6.82%
